Drawing on PMC12170509, this text covers binding for one substance.

By UniProt entry, the sequences of proteins in these tests, tags left out.
UniProt P63208: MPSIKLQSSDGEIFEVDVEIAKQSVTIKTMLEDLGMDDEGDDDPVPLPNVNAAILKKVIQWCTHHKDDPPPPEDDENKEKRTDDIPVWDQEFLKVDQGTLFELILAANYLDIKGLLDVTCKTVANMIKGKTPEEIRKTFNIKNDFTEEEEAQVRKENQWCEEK

No constants are given. Whether binding was seen depends on the method and setting. Binding seen in cells or lysates may run through a third protein. Here binding means that the protein was enriched with, or labelled near, the bait; the list need not be complete.

This test has as its target T1, PDLIM2 (bait of the mass-spectrometry-based proteomic screening) (UniProt Q8R1G6).
T1 sequence: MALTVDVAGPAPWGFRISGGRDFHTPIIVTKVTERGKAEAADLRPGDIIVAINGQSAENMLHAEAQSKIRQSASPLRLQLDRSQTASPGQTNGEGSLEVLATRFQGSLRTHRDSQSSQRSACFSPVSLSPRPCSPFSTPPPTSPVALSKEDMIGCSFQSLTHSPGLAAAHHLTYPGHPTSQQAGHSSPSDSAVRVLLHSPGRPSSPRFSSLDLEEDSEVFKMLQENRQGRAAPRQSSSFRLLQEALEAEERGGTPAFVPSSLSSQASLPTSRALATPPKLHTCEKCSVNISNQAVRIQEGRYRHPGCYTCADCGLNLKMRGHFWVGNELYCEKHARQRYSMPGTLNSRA
Briefly: affinity purification with mass spectrometry; mass-spectrometry-based proteomic screening for proteins coimmunoprecipitated with PDLIM2 ('our initial study'); no details given.

On to “Skp1 (hit of the mass-spectrometry-based proteomic screening) (from UniProt P63208 1-163)”, for which the binding entry was “binds”.
